Patent US5844000A, “Propenone oxime ethers and pharmaceutical compositions containing them” (Sanofi, priority 1997, dated 1998)
At least one compound was matched to its structure with a doubt left.

Experiment: Human pharmacokinetics: plasma radioactivity after single oral dose of 14C-SR 46349B
Type: in vivo
Conditions: single oral 30 mg, total radioactivity, after dosing
Protocol: The objective of this study was to quantitate the biotransformation of ^14 C-SR 46349B in humans. Six healthy male volunteers were treated orally with a single 30 mg dose of ^14 C-SR 46349B (corresponding to 35.4 mg of the salified compound), labeled on the C-1 position of the propenyl chain with ^14 C (1.375 MBq). Excretion-balance, plasma and blood pharmacokinetics of radioactivity, and clinical safety/tolerance were reported. Plasma, urine and fecal homogenates were analyzed for quantitation and identification of SR 46349B and metabolites.
Subjects were fasted overnight prior to the morning of ^14 C-SR 46349B administration. All subjects received a single oral 30 mg dose of ^14 C-SR 46349B (corresponding to 35.4 mg of the […] compound) in a single gelatin capsule. The capsule was dropped directly in the mouth and swallowed with 150 mL of tap water at about 8:00 AM. Ingestion of the capsule was verified by inspection of the oral cavity of each subject. […]
Aliquots of plasma and urine samples were added directly to Ready-Safe scintillant (9 mL), hand shaken for a few seconds and left for at least 2 hours prior to counting. […] Radioactivity assays were performed with a Packard Instruments Tri-Carb, Model 1600TR Liquid Scintillation System. […]

CN(C)CCO/N=[14C](/C=C/c1ccc(O)cc1)c1ccccc1F [^14 C-SR 46349B]
time of Cmax of plasma radioactivity: 2 and 12
